Laboratory results published in patent publication US20230056288A1.
Positions count from the first letter of the chain named. These are yes or no findings as the source states them, for the method shown. Some results given as binding are weak or reduced against the parent protein; the word gives no strength.

T1: IGSF8 extracellular domain (ED) (Homo sapiens (Human)) (UniProt Q969P0)
T1 sequence: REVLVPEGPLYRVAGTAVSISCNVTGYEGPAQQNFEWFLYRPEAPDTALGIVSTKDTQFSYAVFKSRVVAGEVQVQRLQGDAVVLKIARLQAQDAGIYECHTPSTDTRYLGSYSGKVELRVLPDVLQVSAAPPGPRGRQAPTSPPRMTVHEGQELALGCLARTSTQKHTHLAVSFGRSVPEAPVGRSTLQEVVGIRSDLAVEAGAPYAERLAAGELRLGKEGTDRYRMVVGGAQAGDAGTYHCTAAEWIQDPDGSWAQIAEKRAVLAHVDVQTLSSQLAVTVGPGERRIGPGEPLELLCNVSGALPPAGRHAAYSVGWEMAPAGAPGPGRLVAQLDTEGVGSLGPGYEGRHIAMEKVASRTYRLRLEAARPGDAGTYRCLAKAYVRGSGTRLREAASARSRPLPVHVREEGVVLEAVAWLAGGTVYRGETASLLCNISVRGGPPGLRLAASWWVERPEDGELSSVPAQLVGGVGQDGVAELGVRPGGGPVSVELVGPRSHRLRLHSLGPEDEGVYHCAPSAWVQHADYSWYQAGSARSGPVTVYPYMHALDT

B1: Antibody C3 (antibody, V domains shown)
VH: QVQLVESGGGLVQPGGSLRLSCAASGFTFSHYPMRWVRQAPGKGLEWVSSIRRSGGRTKYADSVKGRFTISRDNSKNTLYLQMNSLRAEDTAVYYCARDATGRHYNGMDVWGKGTTVTVSS
VL: DVVMTQSPSSLSASVGDRVTITCRTSQVIGTSLNWYQQKPGRAPRLLIYSASNLQSGVPSRFSGSGHGTQFTLTISSLQPEDFATYSCQQSSRVPHTFGQGTKLEMRR
B2: Antibody C7 (antibody, V domains shown)
VH: B1 VH with Q1E, V5E, H31S, R35N, S50R, R52S, K59S, G102R
VL: ETTLTQSPATLSLSPGERASLSCRASRSVGKYLAWYQQKPGQAPRLLFYYASLRAGDIPSRFTASGSGTDFTLTISRLEPEDFAVYYCQQYGSSPRTFGQGTKLEMKR
B3: Antibody C6 (antibody, V domains shown)
VH: B1 VH with Q1E, H31P, P33R, R35H, S50R, R52N, R53P, K59W, K113Q, T116M
VL: DIQMTQSPSTLSASVGDRVTITCRASQSINKWLAWYQQKPGKAPKLLIYKASTLESGVPSRFSGSGSGTDFTLTINSLQPEDFATYYCQQSHSAPWTFGQGTKVEIER
B4: Antibody C10 (antibody, V domains shown)
VH: EVQLLESGGGLVQPGGSLRLSCAASGFTFSRYRMYWVRQAPGKGLEWVSTISRSGGRTVYADSVKGRFTISRDNSKNTLYLQMNSLRAEDTAVYYCARDATGRHYNGMDVWGQGTLVTV
VL: ETTLTQSPATLSVSPGERATLSCRASQSVSSNVAWYQQKPGQAPRLLMFGSGTRATGIPARFSGSGSGTEFTLTISSLQSEDFAAYYCQQYNDWPSFGQGTRVEIKG
B5: Antibody C11 (antibody, V domains shown)
VH: EVQLVESGGGLVQPGGSLRLSCAASGFTFSRYRMYWVRQAPGKGLEWVSSISSSGGRTKYADSVKGRFTISRDNSKNTLYLQMNSLRAEDTAVYYCARGVRYCSSPSCSRGPRYAMDVWGKGTTVTVSS
VL: DIQMTQSPSSLSASVGDRVTITCRASYVIRNDLSWYQQKPGKAPKLLIYGTSSLHNGVPSRFSGSGYGTYFTLTISSLQPEDFGTYYCLQDDKYPLTFGGGTKVEIKR
B6: Antibody C9 (antibody, V domains shown)
VH: B5 VH with R33D, Y35S, S50R, S52R, S53Y, K59G
VL: DVVMTQSPATLSLSPGEGATLSCRASQSVRGYLAWYQQKPGQAPRLLIYDTFKRATGIPARFSGSGSGADFTLTISSLEPEDSAVYYCQQYFASPWTFGQGTKVEIKR
B7: Antibody C1 (antibody, human IgG1, V domains shown)
VH: QVQLLQSGGGLVQPGGSLRLSCAASGFTFSRYRMSWVRQAPGKGLEWVSRISRSGGATAYADSVKGRFTISRDNSKNTLYLQMNSLRAEDTAVYYCARDATGRHYNGMDVWGRGTLVTVSS
VL: EIALTQSPSSLSASVGDRVTITCRASQTITRHLNWFQQKPGKAPNLLIHGTSALQTGVPPRFSGGGSGTDFTLTINSLQPEDFGTYYCQQSHTKPWTFGPGTKVEIKR
B8: Antibody C2 (antibody, V domains shown)
VH: B7 VH with Q1E, R31S, R33P, S35N, A57R, A59S, G102R, R113K, L116T
VL: B2 VL with E1D, T2V, T3V, L4M
B9: Antibody C12 (antibody, V domains shown)
VH: EVQLVESGGGLVQPGGSLRLSCAASGFTFSKYKMSWVRQAPGKGLEWVSTIAPSGGGTRYADSVKGRFTISRDNSKNTLYLQMNSLRAEDTAVYYCARGGHFSNPWGQGTLVTVSS
VL: DVVMTQSPLSLPVTLGQPASISCRSSQSLVHTDGDTYLNWYQQRPGQSPRRLIYKVSKRDSGVPDRFSGSGSGTDFTLKISRVEAEDVGVYYCMQGIKRPYTLGQGTKLEIKR
B10: Antibody C5 (antibody, V domains shown)
VH: EVQLVQSGGGLVQPGGSLRLSCAASGFTFSRYRMAWVRQAPGKGLEWVSNITRSGGVTRYADSVKGRFTISRDNSKNTLYLQMNSLRAEDTAVYYCARDPNRVTAISSHYGMDVWGKGTTVTVSS
VL: EIVLTQSPSTLSASVGDRVTISCRASQSISRWLAWYQQKPGQAPRLLIYDASNRATGVPARFSVSGSETDSTLTISSLEPEDFAMYYCQQRSNWPPMYTFGQGTKLEIKR

Target: T1, IGSF8 extracellular domain (ED) (Homo sapiens (Human))
Test: ELISA on IGSF8 extracellular domain

binding | Binder
binds | B1
binds | B2
binds | B3
binds | B4
binds | B5
binds | B6
binds | B7
binds | B8
binds | B9
binds | B10
